In all, about 52,000 sequences went through this assay and about 210 (0.4%) were called active.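 The calls were made as follows: active = gene whose silencing raises cell survival under the drug, median off-target-corrected z-score across its silencing RNAs 2 or more; inactive = the rest.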 This is one part of the list.
Assay: Resistance to Poly (ADP-Ribose) Polymerase inhibitor: Gene Identification via Genome-wide siRNA Screen
Details: mouse BRCA2 R2336H ES cells, olaparib, CellTiter-Glo viability; hits give high values
Outline: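 Genome-wide siRNA screen (3 siRNAs/gene, 20 nM) in mouse ES cells carrying hypomorphic BRCA2 R2336H; olaparib 500 nM added 48 h post-transfection, CellTiter-Glo viability 72 h later. Normalized to plate-median negative control; MAD z-scores, gene median, seed-adjusted.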

Row | Sequence | z-score
1 | GGAAGAAAAGAAGCUUUUGTT against Palmd | inactive: 0.145
2 | AUGCACCAUGCCGUUGACUTT against Oxct2b | inactive: 1.19
3 | GGAGGUGGAAUACUGCAUCTT against 4931406B18Rik | inactive: -0.117
4 | GGUGAAGAUGCAGACCUUUTT against Slc25a15 | inactive: -0.0438
5 | CCUCUCCUAUUCCUAGUGUTT against Olfr183 | inactive: -0.186
6 | GGAAAUCAUGAAGCUGAAATT against Clpp | inactive: 0.694
7 | GGCCCAGGUGGAUAGUUAUTT against AU016693 | inactive: -0.206
8 | GGUGACCAUCAAAUGUGGCTT against B230317C12Rik | inactive: -0.495
9 | GGCCCUCAAUACCUGUGGUTT against Olfr690 | inactive: 0.67
10 | GGUUCACCACAGGUCUUGUTT against 4932408F19Rik | inactive: -0.919
11 | GGACAUUGUUAAAGGCAUATT against Kpna2 | inactive: 0.434
12 | GCAAAACUCAUUGAAAGUGTT against 4930569K13Rik | inactive: 0.558
13 | GGAUAUUUUUGGCAGCCCUTT against Slco1b2 | inactive: 2.09
14 | CCACAAAACCACACCAGUGTT against Olfr24 | inactive: -3.21
15 | CCUCAGUGCUUACUUUGAATT against Dusp3 | inactive: -0.82
16 | GGACAACCCAGUCUCAAAATT against Mrpl43 | inactive: -0.571
17 | GGACCUCCACCGUUACUACTT against Sgsh | inactive: -0.509
18 | GGAUGCUCAGGAGAAGCUGTT against Tpm3 | inactive: -1.4
19 | GCCAGUAUUAGCCUAGAUCTT against 2200002K05Rik | inactive: -1.12
20 | GGCAAUUUCCAAGCAGUUUTT against Wnt8b | inactive: 0.377
21 | GGCAAAUUUAGAUAAGUACTT against Cyp39a1 | inactive: 0.471
22 | GGAUGAAGAAAACUGGCUUTT against Tsx | inactive: -0.857
23 | GCAUGGGCAUAACCGAAAGTT against Rex2 | inactive: 0.836
24 | GGAAAGCUUUAAAAAAUCCTT against Mlh1 | inactive: 0.956
25 | GCAUCCUUAGUGAUUUCUATT against 4930570C03Rik | inactive: -1.32
26 | GGUGGGAUGCAGAUCUUUGTT against Ubc | inactive: -0.357

Row | Sequence | z-score
27 | GGGAGGAUACCUUCUAUGUTT against Crebl1 | inactive: 1.48
28 | CCAUUGAUCGUUUAGUCAATT against Trim33 | inactive: 0.806
29 | GGAAGAGGUGCAGCAAAUUTT against Wdr23 | inactive: -0.92
30 | GGAAAAAAGAUGAAUUGCCTT against Cbx8 | inactive: 0.773
31 | GGUAGAAAACAUAAAUGGUTT against AU024582 | inactive: 0.814
32 | GUACCUCAUUUUUAGCACATT against V1rc26 | inactive: 0.452
33 | GGAUCCCAGUUCUGGGUAATT against Dok1 | inactive: 0.232
34 | CCAAAGUAAACUGGAUGUUTT against Gm638 | inactive: 1.11
35 | GGUGAAAGCAGAAAUGGAGTT against Dpysl5 | inactive: 1.2
36 | GGUUCCAAAGUGUUUCUGATT against Nsmaf | inactive: 0.176
37 | GGUCAAAAGGAUUCCUGCATT against Gzmk | inactive: 0.249
38 | GGCCUAUGUCCACAAGAGUTT against 2010012C16Rik | inactive: -0.175
39 | CGUACAUCGUCGAGAUUUUTT against Rims1 | inactive: 0.376
40 | GGGCAUUAGGAAUUAGGGCTT against 0610010D20Rik | inactive: 0.727
41 | GGUGUUUGGCUACCAUACCTT against C630015F21Rik | inactive: 0.281
42 | GGACAUUCUUUAAGAAGAUTT against Tjp3 | inactive: -1.56
43 | GCAGGAUUGUUAAGAGAAATT against Gnaq | inactive: -1.15
44 | GGACCAUACAUAUUCAAAATT against 4632417K02 | inactive: -0.213
45 | GGAAGUGGUUGCUAAGCGATT against Park2 | inactive: -1.46
46 | GGUAAAAAUAGCAACAGAATT against Cpxm2 | inactive: -0.395
47 | GGUGUGUUCCAUAUGACAATT against P2rx7 | inactive: -0.38
48 | CCCUCUGGUUACUAUUAUUTT against D14Ertd449e | inactive: 1.32
49 | GGAUGACCAGACCUUGACGTT against Fgfrl1 | inactive: -0.531
50 | GCAGGUUAUACGCUUAGAUTT against Irx5 | inactive: -0.324
51 | GGGUUUUCUUUGUUUUAGUTT against Trim8 | inactive: -0.56
52 | GGAGAUUCUGUCAGACAGGTT against 4930467B06Rik | inactive: -0.179

Reformatted as a markdown table: entries from further up

| Row | Sequence | z-score |
| --- | --- | --- |
| 12 | GCAAAACUCAUUGAAAGUGTT against 4930569K13Rik | inactive: 0.558 |
| 13 | GGAUAUUUUUGGCAGCCCUTT against Slco1b2 | inactive: 2.09 |
| 14 | CCACAAAACCACACCAGUGTT against Olfr24 | inactive: -3.21 |
| 15 | CCUCAGUGCUUACUUUGAATT against Dusp3 | inactive: -0.82 |
| 16 | GGACAACCCAGUCUCAAAATT against Mrpl43 | inactive: -0.571 |
| 17 | GGACCUCCACCGUUACUACTT against Sgsh | inactive: -0.509 |
| 18 | GGAUGCUCAGGAGAAGCUGTT against Tpm3 | inactive: -1.4 |
| 19 | GCCAGUAUUAGCCUAGAUCTT against 2200002K05Rik | inactive: -1.12 |
| 20 | GGCAAUUUCCAAGCAGUUUTT against Wnt8b | inactive: 0.377 |
| 21 | GGCAAAUUUAGAUAAGUACTT against Cyp39a1 | inactive: 0.471 |
| 22 | GGAUGAAGAAAACUGGCUUTT against Tsx | inactive: -0.857 |
| 23 | GCAUGGGCAUAACCGAAAGTT against Rex2 | inactive: 0.836 |
| 24 | GGAAAGCUUUAAAAAAUCCTT against Mlh1 | inactive: 0.956 |
| 25 | GCAUCCUUAGUGAUUUCUATT against 4930570C03Rik | inactive: -1.32 |
| 26 | GGUGGGAUGCAGAUCUUUGTT against Ubc | inactive: -0.357 |
| 27 | GGGAGGAUACCUUCUAUGUTT against Crebl1 | inactive: 1.48 |
| 28 | CCAUUGAUCGUUUAGUCAATT against Trim33 | inactive: 0.806 |
| 29 | GGAAGAGGUGCAGCAAAUUTT against Wdr23 | inactive: -0.92 |
| 30 | GGAAAAAAGAUGAAUUGCCTT against Cbx8 | inactive: 0.773 |
| 31 | GGUAGAAAACAUAAAUGGUTT against AU024582 | inactive: 0.814 |
| 32 | GUACCUCAUUUUUAGCACATT against V1rc26 | inactive: 0.452 |
| 33 | GGAUCCCAGUUCUGGGUAATT against Dok1 | inactive: 0.232 |
| 34 | CCAAAGUAAACUGGAUGUUTT against Gm638 | inactive: 1.11 |
| 35 | GGUGAAAGCAGAAAUGGAGTT against Dpysl5 | inactive: 1.2 |
| 36 | GGUUCCAAAGUGUUUCUGATT against Nsmaf | inactive: 0.176 |

The list goes on:

Row | Sequence | z-score
53 | GGCCAAGUUAGUUGAACCCTT against Dock11 | inactive: -0.563
54 | CGUGGUAGACACUGUGGUATT against Plin | inactive: -0.4
55 | CGGGCUACCAUUAUGGUGATT against Atp6ap2 | inactive: 0.738
56 | GGUUCCUUACCUAUUCCUATT against BC023818 | inactive: 1.3
57 | GCAUUUCGCCUCUUUCAUATT against Elac1 | inactive: -0.426
58 | GGAUGUCCUACUAGUUAUUTT against 9130401M01Rik | inactive: -0.574
59 | CCCUUUCGACAGAUUAGACTT against Zfp69 | inactive: 0.678
60 | GGCAAUUUCACGAUUUGCUTT against Eif2b4 | inactive: -1
61 | CCUUAGCUAGAGAAAGUUATT against BC034507 | inactive: -0.423
62 | GGCAUGCUUGGCUUAUUUGTT against Kcnk4 | inactive: 0.024
63 | GGAGCUUGCCAUAUUCCUCTT against Leprotl1 | inactive: 1.31
64 | CCCAUUCACUCAUCACAUGTT against F630003A18Rik | inactive: -0.0848
65 | GGGCAAUUUGUUCGACCCATT against Abca2 | inactive: -0.957
66 | GGAGAAAAUGAAGAAGGAATT against Taf5 | inactive: -1.31
67 | CGUAUUAUCUGAGUGAACATT against Fth1 | inactive: 0.892
68 | GGAACUCAUGUGAAGCUCCTT against 1500011L16Rik | inactive: 0.982
69 | GGUUGCAUUUCCAAAAACUTT against Gng10 | inactive: 0.166
70 | GGCAGGUACAGAAACAGUUTT against Olfr432 | inactive: -1.19
71 | GGAAGCCAAACAGUUAUUUTT against Etohi2 | inactive: -0.253
72 | GGAUUAAGAAAGAAACAGGTT against B830013J05Rik | inactive: -0.0834
73 | CCCAAAUUGAUCUCAGAGATT against Cdc42 | inactive: 0.424
74 | CGAAUAGUAGAAGAAACUCTT against Osgepl1 | inactive: -0.524
75 | GGAAGAUACGUGCAAAAUGTT against Rbms2 | inactive: 1.33
76 | GGUUGGUAGACUGUGCUUGTT against D8Ertd354e | inactive: -0.188
77 | GGUACUUGUACUAAUCGCUTT against A330042H22 | inactive: 1.01
78 | GGAAGAGGAGGGAAGGAUCTT against Robo3 | inactive: -1.39

Row | Sequence | z-score
79 | GGAUGAAGUUUACCACCUGTT against Ptgir | inactive: 1.23
80 | GCUAUUGUGUAUUUUCCAATT against BC042513 | inactive: 0.00924
81 | GGACUAUGUGGCCCAGUGUTT against Cml5 | inactive: -0.531
82 | CCCAGACUCAGUUUUAACUTT against Ssb4 | inactive: -0.251
83 | GGUAAGGACUAUUUGAAUUTT against Edg2 | inactive: 0.57
84 | CGUGCCAGACCUAUAGCUUTT against B930074I24 | inactive: 0.374
85 | GGUCUUAAAGCAUGAGAAGTT against Med8 | inactive: 0.253
86 | GCACUACCAAGGCGAUAACTT against 6720430O15 | inactive: -0.132
87 | GGCCUUGGCAAUUAUUUGUTT against Syap1 | inactive: 0.248
88 | GCCUUAUUUGAAAUACAGATT against AU021107 | inactive: -1.29
89 | GGUUUUCACCAAUCGGAUGTT against H2-T24 | inactive: -0.593
90 | GCACAAGAGGUAUCCUUGCTT against A630038D02 | inactive: -0.381
91 | GCCGACAACACAAAAUUAUTT against 2310075A12Rik | inactive: 0.828
92 | GGUUCUAGACAAACAUUUUTT against 4930522D07Rik | inactive: -1.42
93 | CGAAGCACAUAUCUUUGAUTT against Zfp41 | inactive: 1.64
94 | GAAGUCCUGAAGAAGCUCATT against Cart | inactive: 1.32
95 | GGUACAUGAAUUCCAAUACTT against 4832412O06Rik | inactive: 1.06
96 | GGAAUUCCUUCACAUCUGGTT against Mtac2d1 | inactive: 0.146
97 | GCGAUGAUAAGUGCCUGGUTT against Stk31 | inactive: -0.901
98 | GGUCUACGUAGAGGAGCUGTT against Mrpl28 | inactive: -1.76
99 | GGUAUUGGAUCAUUUACAATT against Appbp1 | inactive: -0.406
100 | GUUUACCUCAGCUGUUUUCTT against Olfr495 | inactive: 2.14
101 | GGAUGAAUGUUGCUUGUGUTT against 4933429F08Rik | inactive: -0.322
102 | GCUCCUCCAUCAGUUAGAUTT against Ube2v2 | inactive: 0.246
103 | GGGUGUCUUACACCUUACATT against Sertad2 | inactive: -0.572
104 | GGAUUCAUAAACUUGUGUGTT against Atic | inactive: -0.0486

Reference: PubChem BioAssay AID1347423 (Functional Genomics Laboratory (NCATS/FGL), 2020)
